Hit rate of the full screen: of about 330,000 compounds, about 7,700 (2.3%) were called active. This list was built around the results that the source calls inconclusive (neither active nor inactive); the mix of calls is not that of the screen. The call rests on the fitted dose curve; in most records, active means well fitted inhibition curve with a large enough effect; inconclusive means small, poorly fitted or top-dose-only effect, or effect the other way; inactive means flat fitted curve, though single readings scatter. Where the call is inconclusive, the potency comes from a doubtful curve fit.
Assay: qHTS screen for small molecules that inhibit ELG1-dependent DNA repair in human embryonic kidney (HEK293T) cells expressing luciferase-tagged ELG1; further: nearly all actives have a fitted effect of over 55% in size
Details: HEK293T ELG1-luciferase reporter, luminescence, 16 h, DNA damage induced by 5-fluorouridine; activity change, negative = inhibition: at 46.1 µM (top of the series)
Procedure, shortened: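 In this reporter screen, reduction of luminescence relative to DMSO vehicle indicated activity. Compounds and 5-fluorouridine were added together to 2,000 cells per well, incubated for 16 hr at 37 °C, then developed with ONE-Glo.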
On the % scale 0 is the no-effect control and ±100 the full control effect; potency means the concentration at half of the fitted maximal effect.

Row | Compound | Potency | activity change, negative = inhibition
1 | c1ccc2oc(-c3csc(NCC4CCCO4)n3)cc2c1 (stereo not given) | inconclusive: 2.31 µM [activator, partial curve] | –
2 | Cc1ccc2nc(-c3ccco3)c(Nc3ccccc3)n2c1 | – | inactive: 6.8%
3 | CCn1cc(C(=O)NCc2ccco2)c(=O)c2cc(S(=O)(=O)N3CCC(C)CC3)ccc21 | active: 10.3 µM | –
4 | Cc1nn(-c2ccccc2)c(C)c1/C=N\NS(=O)(=O)c1ccc(Cl)cc1 | inconclusive: 23.1 µM [activator, single point] | –
5 | CCN1C(=O)CC(c2ccccc2)N(C2CCCC2)c2nc(Nc3ccc(C(=O)NC4CCN(C)CC4)cc3OC)ncc21 (stereo not given) | inconclusive: 29.1 µM [activator, single point] | –
6 | CCN(CC)c1ccc(/C=N/NC(=O)OC)c(O)c1 | inconclusive: 14.6 µM [activator, partial curve] | –
7 | CCOC(=O)c1ccc2nc(NC(=O)c3ccco3)sc2c1 | inconclusive: 1.84 µM [activator, full curve] | –
8 | O=C(COc1ccccc1Cl)N1CCN(c2ccc([N+](=O)[O-])c(N3CCOCC3)c2)CC1 | inconclusive: 20.6 µM [inhibitor, single point] | –
9 | CC(=O)Nc1ccc(C(=O)Nc2ccc3c(c2)OCCO3)cc1 | inconclusive: 16.4 µM [activator, partial curve] | –
10 | O=C(Nc1cccnc1)c1cccs1 | inconclusive: 29.1 µM [activator, single point] | –
11 | N#C/C(=C(/O)COC(=O)c1ccc(Cl)c(S(=O)(=O)N2CCOCC2)c1)c1nc2ccccc2[nH]1 | inconclusive: 23.1 µM [inhibitor, single point] | –
12 | COc1ccc(-c2csc(NC(=O)c3ccc(OCC(=O)N4CCOCC4)c(OC)c3)n2)cc1 | active: 16.4 µM | –
13 | O=C(CN1C(=O)NC2(CCCCC2)C1=O)NCCc1ccc(Cl)cc1Cl | – | inactive: -3.95%
14 | CCc1noc(C)c1C(=O)N1CCC(CCC(=O)Nc2cccc(OC)c2)CC1 | inconclusive: 1.83 µM [inhibitor, partial curve, poor fit] | –
15 | Cn1c(Cc2cccc3ccccc23)nnc1SCC(=O)N1CCN(c2cccc(Cl)c2)CC1 | active: 18.4 µM | –
16 | O=C(Nc1cccc(F)c1)c1ccc2ncsc2c1 | inconclusive: 18.3 µM [activator, partial curve] | –
17 | O=C(NCC1CCN(Cc2cccc(Cl)c2)CC1)C1CCCN(c2ncnc3c2nc2n3CCCCC2)C1 (stereo not given) | inconclusive: 13 µM [inhibitor, partial curve, poor fit] | –
18 | CC(=O)c1c(C)nc(-c2ccccc2)nc1NC(=O)C(C)C | – | inactive: -7.08%
19 | CCOC(=O)c1c(-c2ccc(OC)cc2)csc1/N=C/C1C(=O)CCCC1=O | – | inactive: -2.45%
20 | Cc1c(Cl)cccc1NC(=O)Nc1cnccn1 | – | inactive: 6.5%
21 | Cc1ccc(C(=O)O/N=C/c2c(N3CCOCC3)n(C)c3ccccc23)cc1 | inconclusive: 2.24 µM [inhibitor, full curve, poor fit] | –
22 | Cc1cc(C)cc(NC(=O)CN2CCN(CCN=CC3=C(O)CC(c4ccc(Cl)cc4)CC3=O)CC2)c1 (stereo not given) | – | inactive: 3.24%
23 | CCOc1cc(CNCCCN2CCOCC2)ccc1OCC(=O)Nc1cccc2ccccc12 | – | inactive: 12.6%

Another view of part of the listing above:
Row,Compound,Potency,"activity change, negative = inhibition"
4,Cc1nn(-c2ccccc2)c(C)c1/C=N\NS(=O)(=O)c1ccc(Cl)cc1,"inconclusive: 23.1 µM [activator, single point]",–
5,CCN1C(=O)CC(c2ccccc2)N(C2CCCC2)c2nc(Nc3ccc(C(=O)NC4CCN(C)CC4)cc3OC)ncc21 (stereo not given),"inconclusive: 29.1 µM [activator, single point]",–
6,CCN(CC)c1ccc(/C=N/NC(=O)OC)c(O)c1,"inconclusive: 14.6 µM [activator, partial curve]",–
9,CC(=O)Nc1ccc(C(=O)Nc2ccc3c(c2)OCCO3)cc1,"inconclusive: 16.4 µM [activator, partial curve]",–
10,O=C(Nc1cccnc1)c1cccs1,"inconclusive: 29.1 µM [activator, single point]",–
11,N#C/C(=C(/O)COC(=O)c1ccc(Cl)c(S(=O)(=O)N2CCOCC2)c1)c1nc2ccccc2[nH]1,"inconclusive: 23.1 µM [inhibitor, single point]",–
13,O=C(CN1C(=O)NC2(CCCCC2)C1=O)NCCc1ccc(Cl)cc1Cl,–,inactive: -3.95%
14,CCc1noc(C)c1C(=O)N1CCC(CCC(=O)Nc2cccc(OC)c2)CC1,"inconclusive: 1.83 µM [inhibitor, partial curve, poor fit]",–
15,Cn1c(Cc2cccc3ccccc23)nnc1SCC(=O)N1CCN(c2cccc(Cl)c2)CC1,active: 18.4 µM,–
18,CC(=O)c1c(C)nc(-c2ccccc2)nc1NC(=O)C(C)C,–,inactive: -7.08%
20,Cc1c(Cl)cccc1NC(=O)Nc1cnccn1,–,inactive: 6.5%
21,Cc1ccc(C(=O)O/N=C/c2c(N3CCOCC3)n(C)c3ccccc23)cc1,"inconclusive: 2.24 µM [inhibitor, full curve, poor fit]",–
23,CCOc1cc(CNCCCN2CCOCC2)ccc1OCC(=O)Nc1cccc2ccccc12,–,inactive: 12.6%

Continuation.

Row | Compound | Potency | activity change, negative = inhibition
24 | Cc1c(O)ccc2c(CN(C)Cc3ccccc3)cc(=O)oc12 | active: 13 µM | –
25 | COc1cc(NC(=O)c2ccc(F)cc2)c(OC)cc1NC(=O)CN1CCCCC1 | inconclusive: 25.9 µM [inhibitor, single point] | –
27 | COc1cccc(/C=N/NC(=S)NC2CC3CCC2C3)c1OC (stereo not given) | inconclusive: 7.3 µM [inhibitor, partial curve, poor fit] | –
28 | Cc1cccc(C(=O)N2CCN(c3ncnc4c3cnn4-c3ccccc3)CC2)c1 | active: 14.6 µM | –
29 | Cc1ccc(OCCNc2cc(N3CCN(CCO)CC3)ccc2[N+](=O)[O-])cc1C | inconclusive: 29.1 µM [inhibitor, single point] | –
30 | Cc1ccccc1NC(=O)c1onc2c1CCCC2 | inconclusive: 7.31 µM [activator, partial curve] | –
31 | CSc1nnc(N2C(=O)C(O)=C(C(=O)c3ccco3)C2c2ccc(F)cc2)s1 (stereo not given) | inconclusive: 14.6 µM [activator, partial curve, poor fit] | –
32 | CCC(=O)N(CCc1ccc(OC)c(OC)c1)Cc1cc2ccc(C)cc2n2nnnc12 | inconclusive: 23.1 µM [inhibitor, single point] | –
33 | CCN1CCn2c3c(c4cc(Cl)ccc42)CCCC31 (stereo not given) | – | inactive: 3.94%
34 | Cc1cc(=O)oc2c3c(cc(OCC(=O)NC(Cc4ccc(Cl)cc4)C(=O)O)c12)OC(C)(C)CC3 (stereo not given) | – | inactive: 3.06%
35 | Oc1ccccc1-c1nc(/C=C/c2ccccc2)nn1-c1ccccc1 | – | inactive: 17.4%
36 | C=CCn1c(C)cc(C(=O)CSc2nc3ccccc3c(=O)[nH]2)c1C | inconclusive: 2.31 µM [activator, partial curve] | –
37 | CC(NC(=O)/C=C/c1cnc2ccccc2n1)C12CC3CC(CC(C3)C1)C2 (stereo not given) | inconclusive: 32.6 µM [inhibitor, partial curve, poor fit] | –
38 | Cc1cccc(NC(=O)CSc2nc3ccccc3nc2N2CCCC2)c1C | inconclusive: 25.9 µM [activator, single point] | –
39 | CCC(=O)Nc1cccc(NC(=S)NC(=O)c2ccc(C)cc2)c1 | inconclusive: 3.26 µM [activator, partial curve] | –
40 | COc1cc(C(=O)OCC(=O)N2CCCCC2C)cc(NC(=O)c2cccs2)c1OC (stereo not given) | active: 18.3 µM | –
41 | CCN(CC)C(=O)COC(=O)c1cc(-c2ccc(OC)cc2)nc2ccccc12 | inconclusive: 29.1 µM [inhibitor, single point] | –
42 | COc1ccc(-c2cc(C(F)(F)F)nc(NCc3cccs3)n2)cc1 | inconclusive: 20.6 µM [inhibitor, single point] | –
43 | Cc1cc(NC(=O)Nc2ccccc2Cl)no1 | inconclusive: 22.4 µM [activator, single point] | –
44 | CCN(CC)CCn1c(NCc2ccccn2)nc2ccccc21 | – | inactive: 3.52%
45 | COc1ccccc1P(=O)(c1ccccc1)c1ccccc1NC(C)=O (stereo not given) | inconclusive: 23.1 µM [activator, single point] | –
